The results in this text go back to patent US7252824B2 (Mannkind Corporation, priority 2001, dated 2007).

Where a sequence shows no end group, the ends are not given.

A short description of this data set: peptide made by a vendor. To be noted: whole synthesis.

Regarding SSIEGNYTLRVDCTPLMYSLVHLTKEL, the “purity (crude or final not stated)” value was “purity>95%”.
